Measurements reported in PubChem BioAssay AID504774 (Drosophila RNAi Screening Center, 2011).
The deposit covers about 23,000 reagents; below is a random part of those with a known target gene and a result. 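Values are quantile-normalised luminescence on an arbitrary scale; higher means more cells surviving MMS.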 Further read-outs or replicates are left out here.

Purpose: 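Fly genes whose loss alters survival after alkylation damage to DNA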 (primary screen)
Cell system: Drosophila Kc167 cells
Knock-down reagent: long dsRNA against Drosophila genes, about 0.25 µg dsRNA per well
Time to read-out: about 6 days: 3 days knock-down, then 3 days with or without MMS
Treatment: methyl methanesulphonate 0.004% (w/v) for 3 days after knock-down
Read-out: 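Viability in wells given MMS, read as ATP luminescence, normalised by quantiles plate by plate and averaged across replicates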
Reading the numbers: mean viability with MMS: higher = more surviving cells after MMS

Against CG10137 [DRSC02014] the deposit lists mean viability with MMS 3.60e6.
Knock-down of CG10137 [DRSC02015] came out at: mean viability with MMS 3.52e6.
Knock-down of CG14893 [DRSC15015] gave: mean viability with MMS 3.50e6.
TFAM [DRSC15552] showed mean viability with MMS 3.62e6.
After knock-down of CG34248 [DRSC09426], the screen gave mean viability with MMS 3.51e6.
CAH6 [DRSC15505] showed mean viability with MMS 3.40e6.
After knock-down of Svil [DRSC07981], the screen gave mean viability with MMS 3.68e6.
Against Svil [DRSC08296], the values are mean viability with MMS 3.54e6.
With knock-down of Svil [DRSC08332], the screen gave mean viability with MMS 3.59e6.
Svil [DRSC08333] showed mean viability with MMS 2.84e6.
After knock-down of Svil [DRSC08494], the record shows mean viability with MMS 3.59e6.
For COX4L [DRSC04841], the values are mean viability with MMS 3.60e6.
Against GABA-B-R1 [DRSC22038] the deposit lists mean viability with MMS 3.63e6.
For CG1983 [DRSC15410], the entry reads mean viability with MMS 3.58e6.
Knock-down of CG30036 [DRSC21334] came out at: mean viability with MMS 3.55e6.
Acsx1R [DRSC14339] scored mean viability with MMS 3.61e6.
With knock-down of rhi [DRSC05996], the screen gave mean viability with MMS 3.41e6.
Silencing of CG14659 [DRSC12245] gave: mean viability with MMS 3.44e6.
Against kis [DRSC00521], the entry reads mean viability with MMS 3.58e6.
Against kis [DRSC00625] the deposit lists mean viability with MMS 3.42e6.
Knock-down of kis [DRSC00823] gave: mean viability with MMS 3.37e6.

2 entries from above, reformatted.
target gene | DRSC id | mean viability with MMS
CG30036 | DRSC21334 | 3.55e6
Acsx1R | DRSC14339 | 3.61e6

Next records follow:
CG16826 [DRSC02527] scored mean viability with MMS 3.48e6.
Against CG31038 [DRSC15051], the entry reads mean viability with MMS 3.48e6.
Silencing of CG31038 [DRSC16326] gave: mean viability with MMS 3.36e6.
Against CG31038 [DRSC16327], the values are mean viability with MMS 3.46e6.
Silencing of CG14316 [DRSC14795] resulted in: mean viability with MMS 3.63e6.
With knock-down of mtTFB2 [DRSC15519] the results were mean viability with MMS 3.45e6.
For CG14777 [DRSC18563] the deposit lists mean viability with MMS 3.74e6.
rasp [DRSC08191] scored mean viability with MMS 3.39e6.
Against CG4000 [DRSC15535] the deposit lists mean viability with MMS 3.73e6.
CG4000 [DRSC21547] showed mean viability with MMS 3.59e6.
Sec24AB [DRSC06478] showed mean viability with MMS 3.51e6.
Against CG30105 [DRSC05668], the entry reads mean viability with MMS 3.47e6.
CG9682 [DRSC16536] gave mean viability with MMS 3.62e6.
After knock-down of CG9641 [DRSC00721], the screen gave mean viability with MMS 3.63e6.
